At least one compound was matched to its structure with a doubt left. Starred links: 1 amine or outer side, 2 acyl side, 3 side chain; linkers in the order of their positions; H or OH if unused. Non-standard residues stand in square brackets, D forms with d. Residues, ends and D or L forms follow the SMILES beside them. X5 = O=C([C@H](CNS(=O)(=O)O)N[*:1])[*:2]
Tests used:
PKA [1] = biological target: T1, PKA (Homo sapiens, UniProt P17612); assay: Literature Mimetic PKA assay; assay type: biochemical; conditions: Literature Mimetic conditions
Excerpt: (§1) The boronic acid inhibitors 21-24 have two Arg's in their sequence also and therefore will bind to the phosphocellulose paper in addition to Kemptamide (although not as consistently or completely due to one less positive charge). Consequently, when analyzed as inhibitors, the amount of phosphorylated Kemptamide produced was not only counted, but also the amount of phosphorylated inhibitor simultaneously produced (e.g. see 26 below). The net result is that distorted IC50 curves are obtained which show net “stimulation” at higher inhibitor concentrations in some cases. […] The underlying substrate behavior of these “inhibitors” makes an accurate measurement of their inhibition potency impossible with the current assay. However, it does appear from the data that homologating the boronic acid functionality out with only CH2 groups (homologations with boronic acid non-peptide Src inhibitors may also be carried out) decreases the binding affinity and ability to function as a substrate.

PKA [2] = biological target: T1, PKA; assay: Cellular Mimetic PKA assay; assay type: biochemical; conditions: Cellular Mimetic conditions
Excerpt: as §1
Phosphorylated Kemptamide is SEQ. ID. No. 6. Phosphorylated 22 is SEQ. ID. No. 4. […] The graphs show their respective rates and levels of phosphorylation with the typical loss of initial velocity kinetics with time (due to substrate depletion and end product inhibition), analogous to a standard L-Ser substrate such as Kemptamide. […]

## CC[C@H](C)[C@H](NC(=O)[C@H](CNS(=O)(=O)O)NC(=O)CNC(=O)[C@H](CCCNC(=N)N)NC(=O)[C@H](CCCNC(=N)N)NC(C)=O)C(N)=O [Compound 8] (Ac-RRG[X5]I-NH2)
PKA [1]
  binds more tightly than end product phosphate inhibitor 1: 31 ×
PKA [2]
  binds more tightly than end product phosphate inhibitor 1: 108 ×
